Consider one molecule from PMC7652414.

Results are given in words; binding and its absence hold for the method and conditions named. In cells and extracts the contact can be indirect. A result given as binding can be weak or reduced; the word gives no strength. Tags and fused reporters may be left off the sequences shown.

In assay [1] the target is KAP-GFP-His (Chlamydomonas reinhardtii). The assay is described as follows: pull-down; three subunits co-expressed in Sf9, co-purified using MBP and Ni affinity columns consecutively; SDS-PAGE with Coomassie staining or immunoblotting. (In general: In western blotting, separated proteins are transferred to a membrane and probed.)
For assay [2] the target is unchanged. Kind of assay: pull-down; FLA8-RFP/KAP-GFP-His or FLA10-MBP/KAP-GFP-His co-expressed in Sf9; lysis buffer 80 mM Pipes pH 6.9, 150 mM KCl, 1 mM MgCl2, 1 mM EGTA, 0.1 mM ATP, 0.1% Tween-20, 10 mM imidazole; pulled down by Ni beads; immunoblot.

B1: FLA10-MBP (protein, UniProt P46869 1-786)
chain: MPPAGGGSESVKVVVRCRPLNGKEKADGRSRIVDMDVDAGQVKVRNPKADASEPPKAFTFDQVYDWNCQQRDVFDITARPLIDSCIEGYNGTIFAYGQTGTGKSHTMEGKDEPPELRGLIPNTFRYVFEIIARDSGTKEFLVRSSYLEIYNEEVRDLLGKDHSKKMELKESPDRGVYVKDLSQFVCKNYEEMNKVLLAGKDNRQVGATLMNQDSSRSHSIFTITIECIEKLESAAAQKPGAKKDDSNHVRVGKLNLVDLAGSERQDKTGATGDRLKEGIKINLSLTALGNVISALVDGKSGHIPYRDSKLTRLLQDSLGGNTKTVMVANIGPADWNYDETMSTLRYANRAKNIQNKPKINEDPKDAMLRQFQEEIKKLKEQLAARAAGGGGPITMPSGGGSPTQKIVERTEEVDPDIDAIKAQMRAELEAKMKSDISTEALDKAREEAEAAAKKQLQAIIDDQGKTEAQKKAARDALKKQAEEARAIAGAIEKEKQEKAVLESRIKEMEGKIVVGGVNMLEKVDELKQKSEDIKREAAIRKRQEEEAKRRLEELQAAQVDADAKFASLDEEINVKSRQLKKLFEKYQGKKGELADLQEQFQREREGMLEDYRILTQQIKLKNLIIACFIPPDYQDKIMQHCHWQDYDSSWNIDCIAYAGNAVRTNQELQAQEDKEHDAAAENERLKNCFFSYEQFEAAGAGSKQGGGGGGGGGGAARPGSSAGRAVGSAARRTGGKAGGKDITDIGSLRDSVNWGDDDDKKKGAIPKAKGLVKDTVDPRLRASKLK
Regarding B1, the binding result in assay [1] and in assay [2] was “binds” in each case.
